The target of this assay is T1, NDP52 (endogenous) (human (endogenous in HeLa)) (UniProt Q13137).
T1 sequence: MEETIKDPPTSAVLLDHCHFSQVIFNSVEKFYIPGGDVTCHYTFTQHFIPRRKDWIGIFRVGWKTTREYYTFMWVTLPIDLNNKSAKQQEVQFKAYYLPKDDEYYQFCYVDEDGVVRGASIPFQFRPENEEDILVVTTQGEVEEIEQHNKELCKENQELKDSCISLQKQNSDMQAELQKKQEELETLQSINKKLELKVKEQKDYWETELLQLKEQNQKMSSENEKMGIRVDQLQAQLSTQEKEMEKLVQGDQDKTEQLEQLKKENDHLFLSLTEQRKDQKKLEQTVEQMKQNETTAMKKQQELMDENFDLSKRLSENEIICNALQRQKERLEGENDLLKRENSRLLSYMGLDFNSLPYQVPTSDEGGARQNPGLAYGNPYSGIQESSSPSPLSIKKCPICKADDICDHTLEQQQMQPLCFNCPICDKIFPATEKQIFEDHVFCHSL
Put plainly: co-IP; endogenous immunoprecipitation of NDP52 from WT HeLa cells treated with oligomycin/antimycin and Bafilomycin (200 nM) for 3 h; cells crosslinked in situ with DSP before immunoprecipitation.

By UniProt entry, the sequences of proteins in these tests, tags left out.
UniProt Q6ZNE5: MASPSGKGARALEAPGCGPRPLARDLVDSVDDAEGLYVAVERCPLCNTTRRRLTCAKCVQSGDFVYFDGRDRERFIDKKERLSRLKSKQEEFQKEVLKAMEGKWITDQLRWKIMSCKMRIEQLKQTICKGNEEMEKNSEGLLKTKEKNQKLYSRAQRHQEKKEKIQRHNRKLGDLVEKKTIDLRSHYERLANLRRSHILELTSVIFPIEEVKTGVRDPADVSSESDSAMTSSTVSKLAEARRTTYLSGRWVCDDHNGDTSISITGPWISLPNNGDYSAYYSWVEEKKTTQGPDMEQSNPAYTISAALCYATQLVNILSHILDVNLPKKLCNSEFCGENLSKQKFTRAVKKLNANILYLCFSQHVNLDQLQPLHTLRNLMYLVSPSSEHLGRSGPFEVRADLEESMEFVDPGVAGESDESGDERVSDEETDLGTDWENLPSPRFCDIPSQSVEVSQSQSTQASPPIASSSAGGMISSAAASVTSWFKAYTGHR

Results are given in words; binding and its absence hold for the method and conditions named. Binding seen in cells or lysates may run through a third protein.

This is an account of results in article PMC6642318.

For the substance “ATG14 (endogenous) (from UniProt Q6ZNE5 1-492)”, the binding result is reported as “no binding”.
